Results reported in the supplement of paper PMC12067093, “Discovery and optimisation of a covalent ligand for TRIM25 and its application to targeted protein ubiquitination” (Chemical Science, 2025).
The list shows a part of the results.

Compound: Cc1cc(ccc1-c1ccccc1)C(=O)N1CCCN(CC1)C(=O)CCl [compound 10]
Experiment: probe-labelled cysteine peptide fold change vs DMSO (competition) (log2 fold change); higher = less target engagement (more negative = stronger competition)
Conditions: THP-1, incubation time: 4 h
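Note: competitive profiling in live THP-1 cells: cysteine peptides tagged with an iodoacetamide desthiobiotin (IA-DTB) probe, intensity after compound treatment relative to DMSO-treated cells.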

Row | Target | probe-labelled cysteine peptide fold change (10 µM) | probe-labelled cysteine peptide fold change (50 µM)
1 | DICER1_Q9UPY3_1641_DSEYGCLK (UniProt Q9UPY3) | -0.337 | -0.124
2 | DNAAF5_Q86Y56_349_RPVLGCR (UniProt Q86Y56) | 0.0122 | -0.193
3 | DMRT1_Q9Y5R6_105_CNLIAER (UniProt Q9Y5R6) | 0.107 | 0.406
4 | DHX8_Q14562_670_ECLIDPDLTQYAIIMLDEAHER (UniProt Q14562) | 0.285 | -0.0706
5 | DHX35_Q9H5Z1_233_FRDFFNQNETSDPARDTCVILTVEGR (UniProt Q9H5Z1) | 0.0242 | -0.0107
6 | DNMT1_P26358_420_HGHLCPIDTGLIEK (UniProt P26358) | -0.227 | -0.325
7 | DHTKD1_Q96HY7_429_DVIIDLLCYR (UniProt Q96HY7) | 0.0421 | 0.211
8 | DHX9_Q08211_773_VRPGFCFHLCSR (UniProt Q08211) | -0.117 | -0.00629
9 | DHTKD1_Q96HY7_392_LVGCAIIHVNGDSPEEVVR (UniProt Q96HY7) | -0.0572 | -0.0728
10 | DNAJA4_Q8WW22_368_EFCPNEQNWR (UniProt Q8WW22) | -0.223 | -0.435
11 | DLST_P36957_245_EAQNTCAMLTTFNEIDMSNIQEMR (UniProt P36957) | 0.0882 | -0.03
12 | DNAJB1_P25685_269_EALCGCTVNVPTLDGR (UniProt P25685) | 0.189 | 0.163
13 | DHX37_Q8IY37_456_TPLEDYSGECFR (UniProt Q8IY37) | -0.0599 | -0.138
14 | DNAJC2_Q99543_276_TLVDNAYSCDPR (UniProt Q99543) | 0.219 | -0.0445
15 | DIAPH3_Q9NSV4_249_VIQCLK (UniProt Q9NSV4) | 0.00188 | -0.232
16 | DNMT1_P26358_1339_ACQLSVVVDDKK (UniProt P26358) | -0.133 | -1.16
17 | DNAAF5_Q86Y56_773_MAAASTLVTWLQCVK (UniProt Q86Y56) | 0.204 | 0.159
18 | DNAAF5_Q86Y56_365_ILPALCHDITDWVVGTR (UniProt Q86Y56) | 0.00399 | -0.141
19 | DNAAF2_Q9NVR5_673_LQECSNSDQLQGK (UniProt Q9NVR5) | -0.0102 | 0.284
20 | DIS3_Q9Y2L1_549_IDMVPELLSSNLCSLK (UniProt Q9Y2L1) | 0.389 | 0.0881

Complete entries, quoted from the list. Values in the order: probe-labelled cysteine peptide fold change (10 µM) | probe-labelled cysteine peptide fold change (50 µM)
DHTKD1_Q96HY7_429_DVIIDLLCYR (UniProt Q96HY7) in the list: 0.0421 | 0.211
DNMT1_P26358_420_HGHLCPIDTGLIEK (UniProt P26358) in the list: -0.227 | -0.325

The list goes on:

Row | Target | probe-labelled cysteine peptide fold change (10 µM) | probe-labelled cysteine peptide fold change (50 µM)
21 | DNMT1_P26358_664_CGVCEVCQQPECGK (UniProt P26358) | -0.0666 | -0.191
22 | DHX9_Q08211_1029_SSVNCPFSSQDMK (UniProt Q08211) | -5.51e-05 | -0.148
23 | DIS3_Q9Y2L1_492_HLCICSVDPPGCTDIDDALHCR (UniProt Q9Y2L1) | -0.0426 | -0.201
24 | DNAJB1_P25685_267_EALCGCTVNVPTLDGR (UniProt P25685) | 0.328 | 0.116
25 | DIAPH3_Q9NSV4_1125_SHYNINCNSTR (UniProt Q9NSV4) | -0.0609 | -0.171
26 | DNM1L_O00429_300_DCLPELK (UniProt O00429) | -0.0496 | 0.121
27 | DHX9_Q08211_612_DKDDDGGEDDDANCNLICGDEYGPETR (UniProt Q08211) | -0.375 | 0.276
28 | DNAJA3_Q96EY1_253+256_VQHCHYCGGSGMETINTGPFVMR (UniProt Q96EY1) | 0.0818 | -0.196
29 | DHX38_Q92620_865_TGPGQCFR (UniProt Q92620) | 0.0336 | -0.0451
30 | DIAPH2_O60879_821_LTFEEHINNIKPSIIAVTLACEELK (UniProt O60879) | -0.0315 | 0.25
31 | DHX37_Q8IY37_486_MLPAGGILVFLTGQAEVHALCR (UniProt Q8IY37) | 0.185 | 0.636
32 | DNM1L_O00429_300_LLMHHIRDCLPELK (UniProt O00429) | -0.111 | -0.595
33 | DHX36_Q9H2U1_781_DYCWEYFLSSNTLQMLHNMK (UniProt Q9H2U1) | 0.211 | 0.0914
34 | DNAJC16_Q9Y2G8_375_LFHELCPVKR (UniProt Q9Y2G8) | -0.0698 | -0.0193
35 | DHX57_Q6P158_453_INNPACHK (UniProt Q6P158) | -0.133 | -0.392
36 | DIEXF_Q68CQ4_717_ATNRGEEATWTCTVLYSK (UniProt Q68CQ4) | 0.161 | 0.124
37 | DHX30_Q7L2E3_535_GGALLFCTVGILLR (UniProt Q7L2E3) | -0.765 | 0.367
38 | DHX34_Q14147_628_SAQSSPECAAAR (UniProt Q14147) | -0.184 | -0.504
39 | DNASE1L1_P49184_224_ASTHCTYDR (UniProt P49184) | -0.121 | 0.00658
